## Results of single-concentration screens

Source: ChEMBL document CHEMBL3988442, “University of Dundee, Small-Polar-MMV Screening Library” (2021).

A: 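Whole-parasite assay of Trypanosoma brucei over 72 hours; the read-out is not stated. Compounds at 30 µM. The record gives no direction; compounds that gave an IC50 in retests scored well above the rest, so higher reads as stronger inhibition. Values scatter widely below zero; nearly all retest evidence comes from the higher of the two concentrations used. About 64,000 compounds were tested under these conditions; 1.5% (about 940) showed 50% or more at least once.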
B: 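Assay of Toxoplasma gondii numbers, read through their beta-galactosidase reporter with a colour substrate. Tested at 10 µM. Higher reads as fewer parasites (inferred from which compounds were picked for retests). About 67,000 compounds were tested under these conditions; 0.38% (about 260) showed 50% or more at least once.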

Each number is a percent effect as filed. The record does not define 0% and 100%; most values in the screen are far below 50% and negative numbers occur (in some assays of this library far below -100). This is an unselected part of the compounds tested.

{"smiles": "Cc1ccc(CN2CCC3(CCC(=O)N3CC(=O)N(C)C)CC2)s1.O=C(O)C(F)(F)F", "A": -20.22, "B": -15.04}
{"smiles": "CCC(=O)NS(=O)(=O)c1cccnc1Nc1cccc(Cl)c1Cl", "A": -17.49, "B": 8.74}
{"smiles": "CCn1cnnc1CNC(=O)N1CCN(c2nc(C)c(C)s2)CC1", "A": 29.63, "B": 1.376}
{"smiles": "Cc1noc(CCCC(=O)N2CCCCC2CNS(C)(=O)=O)n1", "stereo": "configuration not stated", "A": 0.62, "B": 0.1319}
{"smiles": "COc1cc(C(=O)NCCc2cccc(C)c2)on1", "A": -2.412, "B": 0.9541}
{"smiles": "O=C(O)CCc1cc2n(n1)CCCN(C(=O)c1ccc(F)cc1F)C2", "A": -17.78, "B": -3.487}
{"smiles": "CCN(C)C[C@@H]1CN(S(=O)(=O)c2cccc(C#N)c2)C[C@@H]1CO", "A": -6.682, "B": -12.55}
{"smiles": "N[C@H]1CN(C(=O)CCCc2ccc(F)cc2)C[C@@H]1C1CC1", "A": 79.67, "B": -18.21}
{"smiles": "CC1CN(C)CCN1C(=O)Cc1cc(Cl)c2c(c1)OCCO2", "stereo": "configuration not stated", "A": -50.01, "B": 12.01}
{"smiles": "COCCN1CCC2(C1)c1ccccc1S(=O)(=O)N2Cc1ccccc1.O=C(O)C(F)(F)F", "stereo": "configuration not stated", "A": 44.74, "B": -0.538}
{"smiles": "Cc1cnn(CC2CN(Cc3nnc(C4CC4)n3C)CCO2)c1", "stereo": "configuration not stated", "A": -16.99, "B": 0.1526}
{"smiles": "COC(=O)CSc1nnc2[nH]c(=O)c3c(n12)CCCC3", "A": 0.4961, "B": 23.29}
{"smiles": "COCCC(=O)N(CCC#N)c1ccc(C)c(C)c1", "A": 6.223, "B": 2.41}
{"smiles": "Cc1cc(S(=O)(=O)N(CC(N)=O)CC(C)C)ccc1Br", "A": 1.83, "B": 8.182}
{"smiles": "Cn1nc2c(cc1=O)CN(Cc1coc(-c3ccc(F)cc3)n1)CC2", "A": 21.89, "B": 30.33}
{"smiles": "CN1C[C@H](O)[C@]2(CCN(Cc3ccc(OC(F)(F)F)cc3)C2)S1(=O)=O", "A": 22.17, "B": 4.167}
{"smiles": "Cc1nc2cc(CNC(=O)C3CC(=O)N(C4CCCC4)C3)ccc2n1C", "stereo": "configuration not stated", "A": 15.1, "B": 22.1}